In the supplement of paper PMC12067093, “Discovery and optimisation of a covalent ligand for TRIM25 and its application to targeted protein ubiquitination” (Chemical Science, 2025):
This is one part of the list.

Chains of the proteins cited; added tags and fusions are not shown. Lines headed by an entry give the natural chain unless they say otherwise; changes in a name come on top.
UniProt Q9P2R3: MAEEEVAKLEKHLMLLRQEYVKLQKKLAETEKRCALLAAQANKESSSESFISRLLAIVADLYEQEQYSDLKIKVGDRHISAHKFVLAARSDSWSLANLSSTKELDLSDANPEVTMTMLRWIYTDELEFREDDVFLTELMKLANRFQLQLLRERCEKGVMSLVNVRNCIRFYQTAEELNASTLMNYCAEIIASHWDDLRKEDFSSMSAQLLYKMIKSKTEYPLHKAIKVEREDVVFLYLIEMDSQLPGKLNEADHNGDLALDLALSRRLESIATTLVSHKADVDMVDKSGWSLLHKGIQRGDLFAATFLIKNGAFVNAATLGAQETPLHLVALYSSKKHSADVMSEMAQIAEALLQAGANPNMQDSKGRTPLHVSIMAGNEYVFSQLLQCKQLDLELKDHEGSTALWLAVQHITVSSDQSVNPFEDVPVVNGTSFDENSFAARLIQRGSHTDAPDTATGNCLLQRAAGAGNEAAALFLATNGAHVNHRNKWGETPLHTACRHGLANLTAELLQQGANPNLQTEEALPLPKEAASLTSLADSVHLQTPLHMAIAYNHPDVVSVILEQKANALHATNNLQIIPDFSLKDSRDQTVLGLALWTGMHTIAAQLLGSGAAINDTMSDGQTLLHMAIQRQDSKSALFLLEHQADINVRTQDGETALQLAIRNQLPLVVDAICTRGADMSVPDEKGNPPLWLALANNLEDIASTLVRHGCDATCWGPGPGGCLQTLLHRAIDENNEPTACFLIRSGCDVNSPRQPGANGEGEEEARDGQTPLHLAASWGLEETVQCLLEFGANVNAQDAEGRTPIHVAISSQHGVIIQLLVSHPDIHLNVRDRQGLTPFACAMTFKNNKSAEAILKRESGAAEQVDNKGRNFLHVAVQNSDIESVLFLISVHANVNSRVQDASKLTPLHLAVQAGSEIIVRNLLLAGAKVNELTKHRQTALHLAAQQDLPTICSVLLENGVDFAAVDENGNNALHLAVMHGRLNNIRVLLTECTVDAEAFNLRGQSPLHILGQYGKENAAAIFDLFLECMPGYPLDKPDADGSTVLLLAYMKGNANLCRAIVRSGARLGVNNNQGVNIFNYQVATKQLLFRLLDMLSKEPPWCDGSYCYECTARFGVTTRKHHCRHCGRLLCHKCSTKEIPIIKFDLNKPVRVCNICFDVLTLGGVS
UniProt Q9H1A4, whole entry, looked up: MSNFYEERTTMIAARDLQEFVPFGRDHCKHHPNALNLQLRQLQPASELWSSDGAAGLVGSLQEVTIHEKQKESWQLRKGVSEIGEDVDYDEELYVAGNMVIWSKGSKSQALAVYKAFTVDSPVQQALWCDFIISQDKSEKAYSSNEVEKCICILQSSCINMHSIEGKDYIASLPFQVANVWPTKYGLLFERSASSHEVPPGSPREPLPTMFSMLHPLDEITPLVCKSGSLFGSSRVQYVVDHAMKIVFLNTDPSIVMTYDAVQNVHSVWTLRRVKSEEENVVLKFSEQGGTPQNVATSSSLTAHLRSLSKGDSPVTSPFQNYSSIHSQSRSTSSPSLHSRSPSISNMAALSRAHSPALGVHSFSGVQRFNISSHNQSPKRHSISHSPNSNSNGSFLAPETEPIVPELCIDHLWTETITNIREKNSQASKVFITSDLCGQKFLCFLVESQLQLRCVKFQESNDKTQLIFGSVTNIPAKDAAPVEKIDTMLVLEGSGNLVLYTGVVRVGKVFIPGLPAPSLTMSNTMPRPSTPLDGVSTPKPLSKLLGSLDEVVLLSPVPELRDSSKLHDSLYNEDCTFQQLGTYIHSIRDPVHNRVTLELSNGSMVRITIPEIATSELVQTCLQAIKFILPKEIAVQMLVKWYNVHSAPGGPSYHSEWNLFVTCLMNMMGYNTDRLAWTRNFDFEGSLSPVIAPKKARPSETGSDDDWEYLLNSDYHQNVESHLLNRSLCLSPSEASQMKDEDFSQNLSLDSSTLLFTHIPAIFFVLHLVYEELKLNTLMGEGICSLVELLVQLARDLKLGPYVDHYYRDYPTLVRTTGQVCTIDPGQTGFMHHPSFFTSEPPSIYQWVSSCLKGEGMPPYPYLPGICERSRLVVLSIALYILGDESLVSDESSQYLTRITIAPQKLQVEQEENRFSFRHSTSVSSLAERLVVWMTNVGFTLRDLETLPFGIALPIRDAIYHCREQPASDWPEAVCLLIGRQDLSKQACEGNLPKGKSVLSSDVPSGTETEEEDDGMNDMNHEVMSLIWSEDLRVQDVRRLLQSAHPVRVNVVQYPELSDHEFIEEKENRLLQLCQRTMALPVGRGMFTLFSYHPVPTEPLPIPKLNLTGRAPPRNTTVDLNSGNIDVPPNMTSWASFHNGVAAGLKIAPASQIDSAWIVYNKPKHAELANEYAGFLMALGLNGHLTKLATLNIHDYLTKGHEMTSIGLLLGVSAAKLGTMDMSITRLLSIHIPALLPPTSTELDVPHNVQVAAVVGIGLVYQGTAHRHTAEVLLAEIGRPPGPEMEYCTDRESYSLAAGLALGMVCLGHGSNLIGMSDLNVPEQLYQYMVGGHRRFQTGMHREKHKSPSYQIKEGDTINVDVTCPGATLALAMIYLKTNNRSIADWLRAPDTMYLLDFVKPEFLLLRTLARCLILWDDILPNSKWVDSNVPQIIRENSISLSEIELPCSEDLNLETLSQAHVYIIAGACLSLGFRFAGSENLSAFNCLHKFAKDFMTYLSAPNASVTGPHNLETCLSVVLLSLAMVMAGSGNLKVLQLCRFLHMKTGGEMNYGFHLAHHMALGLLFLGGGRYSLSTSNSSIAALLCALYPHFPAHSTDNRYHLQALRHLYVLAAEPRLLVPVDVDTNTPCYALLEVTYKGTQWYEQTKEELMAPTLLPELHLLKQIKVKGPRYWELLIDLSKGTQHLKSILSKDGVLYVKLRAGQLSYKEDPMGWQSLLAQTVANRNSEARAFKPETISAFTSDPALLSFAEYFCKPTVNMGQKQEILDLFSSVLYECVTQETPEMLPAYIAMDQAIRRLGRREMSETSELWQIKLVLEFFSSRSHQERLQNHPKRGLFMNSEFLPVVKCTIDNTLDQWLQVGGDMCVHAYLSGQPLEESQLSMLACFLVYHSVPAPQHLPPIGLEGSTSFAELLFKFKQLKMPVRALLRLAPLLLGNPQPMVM
UniProt P51648: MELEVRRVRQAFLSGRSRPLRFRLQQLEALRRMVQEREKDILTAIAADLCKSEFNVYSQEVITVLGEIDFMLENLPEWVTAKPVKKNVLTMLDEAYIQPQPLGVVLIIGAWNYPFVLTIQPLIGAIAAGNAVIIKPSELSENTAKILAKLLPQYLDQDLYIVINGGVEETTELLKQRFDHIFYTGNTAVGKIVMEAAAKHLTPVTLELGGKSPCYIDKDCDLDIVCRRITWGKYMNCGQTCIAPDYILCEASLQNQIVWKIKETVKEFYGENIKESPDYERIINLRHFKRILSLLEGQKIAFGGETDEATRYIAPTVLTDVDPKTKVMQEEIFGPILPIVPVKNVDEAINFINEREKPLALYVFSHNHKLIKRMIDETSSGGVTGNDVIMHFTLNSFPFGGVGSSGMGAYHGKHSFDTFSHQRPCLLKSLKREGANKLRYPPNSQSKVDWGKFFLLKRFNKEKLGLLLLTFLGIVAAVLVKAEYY
UniProt Q9UJX3, whole entry, looked up: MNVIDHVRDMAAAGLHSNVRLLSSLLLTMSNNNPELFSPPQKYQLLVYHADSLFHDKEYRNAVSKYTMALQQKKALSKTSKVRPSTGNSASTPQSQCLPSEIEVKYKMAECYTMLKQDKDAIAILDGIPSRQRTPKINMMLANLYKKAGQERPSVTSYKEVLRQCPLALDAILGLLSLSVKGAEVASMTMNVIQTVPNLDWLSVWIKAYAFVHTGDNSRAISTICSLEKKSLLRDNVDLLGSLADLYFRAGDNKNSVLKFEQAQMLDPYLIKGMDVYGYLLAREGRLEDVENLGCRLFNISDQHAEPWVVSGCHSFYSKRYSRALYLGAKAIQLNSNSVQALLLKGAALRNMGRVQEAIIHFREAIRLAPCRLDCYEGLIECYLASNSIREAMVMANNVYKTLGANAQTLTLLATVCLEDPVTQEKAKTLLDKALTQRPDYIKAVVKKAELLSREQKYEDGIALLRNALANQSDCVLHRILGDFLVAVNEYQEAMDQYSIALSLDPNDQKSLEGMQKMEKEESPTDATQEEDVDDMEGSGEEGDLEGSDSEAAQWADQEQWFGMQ
UniProt O00170: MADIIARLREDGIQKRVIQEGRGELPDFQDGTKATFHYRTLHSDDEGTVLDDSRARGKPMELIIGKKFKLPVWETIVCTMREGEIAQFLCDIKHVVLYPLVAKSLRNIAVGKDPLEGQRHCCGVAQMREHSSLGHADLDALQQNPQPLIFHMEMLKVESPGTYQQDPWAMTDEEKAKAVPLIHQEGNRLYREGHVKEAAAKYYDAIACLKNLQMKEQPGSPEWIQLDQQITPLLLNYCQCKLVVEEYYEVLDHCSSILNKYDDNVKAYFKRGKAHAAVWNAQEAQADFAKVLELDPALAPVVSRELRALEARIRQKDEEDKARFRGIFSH
UniProt Q9NYG5, whole entry, looked up: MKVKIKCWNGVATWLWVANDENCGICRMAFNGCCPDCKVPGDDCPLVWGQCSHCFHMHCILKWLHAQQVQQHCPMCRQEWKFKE
UniProt O00116: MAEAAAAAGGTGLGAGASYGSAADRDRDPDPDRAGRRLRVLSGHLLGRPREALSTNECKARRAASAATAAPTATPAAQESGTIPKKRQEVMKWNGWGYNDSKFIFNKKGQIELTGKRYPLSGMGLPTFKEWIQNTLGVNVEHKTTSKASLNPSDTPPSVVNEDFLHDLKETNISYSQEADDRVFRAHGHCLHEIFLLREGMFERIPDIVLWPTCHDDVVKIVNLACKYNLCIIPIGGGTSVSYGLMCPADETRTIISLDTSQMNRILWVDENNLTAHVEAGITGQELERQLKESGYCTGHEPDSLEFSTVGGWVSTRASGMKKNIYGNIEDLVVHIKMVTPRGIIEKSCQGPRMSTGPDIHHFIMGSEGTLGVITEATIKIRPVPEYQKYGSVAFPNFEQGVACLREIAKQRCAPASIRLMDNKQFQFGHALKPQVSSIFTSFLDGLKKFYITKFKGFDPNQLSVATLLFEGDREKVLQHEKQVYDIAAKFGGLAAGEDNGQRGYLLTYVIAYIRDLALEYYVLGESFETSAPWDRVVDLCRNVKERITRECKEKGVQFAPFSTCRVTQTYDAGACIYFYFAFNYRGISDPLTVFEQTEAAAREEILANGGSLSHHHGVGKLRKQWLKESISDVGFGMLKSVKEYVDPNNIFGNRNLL
UniProt Q96HN2, whole entry, looked up: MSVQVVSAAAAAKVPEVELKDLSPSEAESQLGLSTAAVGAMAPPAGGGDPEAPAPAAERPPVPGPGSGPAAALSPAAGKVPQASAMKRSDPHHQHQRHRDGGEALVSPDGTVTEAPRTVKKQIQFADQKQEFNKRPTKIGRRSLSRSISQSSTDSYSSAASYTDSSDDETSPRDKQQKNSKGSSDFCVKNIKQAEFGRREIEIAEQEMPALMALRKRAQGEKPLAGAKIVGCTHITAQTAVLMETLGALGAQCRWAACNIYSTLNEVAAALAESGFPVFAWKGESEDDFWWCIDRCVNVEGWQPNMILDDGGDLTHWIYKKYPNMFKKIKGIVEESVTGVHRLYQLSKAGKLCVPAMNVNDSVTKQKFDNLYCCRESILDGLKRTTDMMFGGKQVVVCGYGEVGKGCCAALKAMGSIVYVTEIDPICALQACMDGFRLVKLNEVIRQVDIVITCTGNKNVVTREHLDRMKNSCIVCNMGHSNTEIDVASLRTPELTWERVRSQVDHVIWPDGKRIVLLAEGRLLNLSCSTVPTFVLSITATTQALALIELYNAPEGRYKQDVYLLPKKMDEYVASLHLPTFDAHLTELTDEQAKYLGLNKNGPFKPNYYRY
UniProt O43823: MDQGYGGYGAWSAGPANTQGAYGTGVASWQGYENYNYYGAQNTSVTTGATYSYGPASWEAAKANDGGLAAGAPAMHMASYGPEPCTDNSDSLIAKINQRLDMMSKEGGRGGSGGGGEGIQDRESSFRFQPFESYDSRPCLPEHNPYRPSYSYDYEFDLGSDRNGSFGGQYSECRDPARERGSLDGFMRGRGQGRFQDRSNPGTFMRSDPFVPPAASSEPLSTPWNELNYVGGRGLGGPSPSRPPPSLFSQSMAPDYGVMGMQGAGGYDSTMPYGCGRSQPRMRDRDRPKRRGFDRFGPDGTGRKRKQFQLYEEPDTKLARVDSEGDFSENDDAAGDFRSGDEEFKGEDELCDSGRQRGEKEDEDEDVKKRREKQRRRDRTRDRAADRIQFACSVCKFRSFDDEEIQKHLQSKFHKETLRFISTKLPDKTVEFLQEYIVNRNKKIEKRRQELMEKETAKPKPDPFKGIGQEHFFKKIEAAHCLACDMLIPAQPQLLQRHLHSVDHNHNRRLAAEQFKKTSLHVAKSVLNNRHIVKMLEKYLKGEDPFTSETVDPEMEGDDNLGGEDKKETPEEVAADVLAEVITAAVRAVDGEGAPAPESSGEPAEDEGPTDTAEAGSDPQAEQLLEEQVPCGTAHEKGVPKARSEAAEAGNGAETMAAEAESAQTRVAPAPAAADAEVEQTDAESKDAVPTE

Compound: Cc1cc(ccc1-c1ccccc1)C(=O)N1CCCN(CC1)C(=O)CCl [compound 10]
Experiment: probe-labelled cysteine peptide fold change vs DMSO (competition) (log2 fold change); higher = less target engagement (more negative = stronger competition)
Settings: THP-1, incubation time: 4 h
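Note: competitive profiling in live THP-1 cells: cysteine peptides tagged with an iodoacetamide desthiobiotin (IA-DTB) probe, intensity after compound treatment relative to DMSO-treated cells.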

Row | Target | probe-labelled cysteine peptide fold change (10 µM) | probe-labelled cysteine peptide fold change (50 µM)
1 | ANKFY1_Q9P2R3_742_AIDENNEPTACFLIR (UniProt Q9P2R3) | -0.0754 | -0.213
2 | AMACR_Q9UHK6_117_LSGFGQSGSFCR (UniProt Q9UHK6) | -0.119 | -0.0622
3 | ANAPC1_Q9H1A4_437_VFITSDLCGQK (UniProt Q9H1A4) | -0.00469 | -0.0717
4 | AKAP13_Q12802_2101_FCGQHNQSVNYFK (UniProt Q12802) | -0.0819 | -0.0492
5 | AK6_Q9Y3D8_81_EGGVIVDYHGCDFFPER (UniProt Q9Y3D8) | 0.127 | 0.272
6 | AHCY_P23526_195_SKFDNLYGCR (UniProt P23526) | -0.056 | -0.0438
7 | ALDH3A2_P51648_220+226_DCDLDIVCR (UniProt P51648) | 0.249 | 0.311
8 | ALDOB_P05062_240_ALNDHHVYLEGTLLKPNMVTAGHACTK (UniProt P05062) | -0.247 | -0.446
9 | AKR7A2_O43488_156_LQCPQVDLFYLHAPDHGTPVEETLHACQR (UniProt O43488) | 0.0687 | -0.0865
10 | ANAPC7_Q9UJX3_509_NALANQSDCVLHR (UniProt Q9UJX3) | 0.113 | -0.182
11 | AIP_O00170_78_LPVWETIVCTMR (UniProt O00170) | -0.308 | -0.31
12 | ANAPC11_Q9NYG5_51_VPGDDCPLVWGQCSHCFHMHCILK (UniProt Q9NYG5) | 0.0232 | -0.207
13 | AIMP2_Q13155_143_LLCEHFR (UniProt Q13155) | -0.0723 | 0.013
14 | ANKFY1_Q9P2R3_843_QGLTPFACAMTFK (UniProt Q9P2R3) | -0.108 | -0.109
15 | ALDH1B1_P30837_169_TIPMDGQHFCFTR (UniProt P30837) | 0.00215 | -0.131
16 | AIMP2_Q13155_23_PYHGGGAPLRVELPTCMYR (UniProt Q13155) | -0.0258 | -0.326
17 | ALOX5_P09917_249_CTELPEK (UniProt P09917) | -0.0203 | 0.0505
18 | AHNAK_Q09666_1833_GPFVEAEVPDVDLECPDAK (UniProt Q09666) | -0.0289 | -0.194
19 | ANAPC1_Q9H1A4_1630_LLVPVDVDTNTPCYALLEVTYK (UniProt Q9H1A4) | -0.151 | 0.155
20 | AHCTF1_Q8WYP5_107_RTGLLIGLEETEGSVLCLYDLGISK (UniProt Q8WYP5) | 0.125 | 0.0532
21 | ALDH5A1_P51649_272_EVGEAICTDPLVSK (UniProt P51649) | 0.233 | 0.207

Row | Target | probe-labelled cysteine peptide fold change (10 µM) | probe-labelled cysteine peptide fold change (50 µM)
22 | ALDH9A1_P49189_355_VLCGGDIYVPEDPK (UniProt P49189) | -0.105 | 0.0431
23 | ALG11_Q2TAA5_345_LVLIGGCR (UniProt Q2TAA5) | 0.00163 | 0.0992
24 | AIP_O00170_254_LVVEEYYEVLDHCSSILNK (UniProt O00170) | -0.102 | -0.0879
25 | ANAPC10_Q9UM13_173_CTTIDFMMYR (UniProt Q9UM13) | 0.0864 | 0.0107
26 | ALAS1_P13196_8_RCPFLSR (UniProt P13196) | 0.407 | 0.748
27 | ALS2_Q96Q42_916_LLCESSNR (UniProt Q96Q42) | -0.0532 | -0.0888
28 | AKAP1_Q92667_102_LPAEPPALLQTHPPCR (UniProt Q92667) | -0.222 | -0.34
29 | ANAPC5_Q9UJX4_312_YAALNLAALHCR (UniProt Q9UJX4) | 0.0158 | -0.0174
30 | ALDH2_P05091_386_LLCGGGIAADR (UniProt P05091) | -0.131 | -0.106
31 | AHRR_A9YTQ3_650_GEQSCTCR (UniProt A9YTQ3) | -0.131 | –
32 | ALDOA_P04075_178_YASICQQNGIVPIVEPEILPDGDHDLKR (UniProt P04075) | 0.281 | -0.12
33 | AKR1B1_P15121_187_PAVNQIECHPYLTQEK (UniProt P15121) | -0.0518 | 0.23
34 | ANAPC1_Q9H1A4_575_LHDSLYNEDCTFQQLGTYIHSIRDPVHNR (UniProt Q9H1A4) | 0.0704 | 0.147
35 | ANKFY1_Q9P2R3_1060_GNANLCR (UniProt Q9P2R3) | -0.0224 | 0.0974
36 | ALG13_Q9NP73_86_ADLVISHAGAGSCLETLEK (UniProt Q9NP73) | -0.211 | -0.753
37 | ALDH1L2_Q3SY69_683_SCAVSNLK (UniProt Q3SY69) | -0.217 | -0.687
38 | AKR1A1_P14550_46_HIDCAAIYGNEPEIGEALKEDVGPGK (UniProt P14550) | -0.393 | -1.14
39 | AKR7A2_O43488_156_RLQCPQVDLFYLHAPDHGTPVEETLHACQR (UniProt O43488) | -0.0385 | -0.278
40 | ANAPC1_Q9H1A4_1074_LLQLCQR (UniProt Q9H1A4) | -0.0436 | 0.000425
41 | ANKHD1_Q8IWZ3_1716_GGCNITAIQDVTGAHIDVDK (UniProt Q8IWZ3) | 0.183 | 0.0508
42 | ALKBH4_Q9NXW9_227_SVLCQEVEVAIPLPAR (UniProt Q9NXW9) | -0.161 | 0.229

Row | Target | probe-labelled cysteine peptide fold change (10 µM) | probe-labelled cysteine peptide fold change (50 µM)
43 | ALDH3A2_P51648_226_DCDLDIVCR (UniProt P51648) | -0.0334 | -0.00592
44 | ANAPC11_Q9NYG5_76_WLHAQQVQQHCPMCR (UniProt Q9NYG5) | 0.147 | 0.0305
45 | AKAP17A_Q02040_522_SVNGSVAEEAPCK (UniProt Q02040) | -0.354 | -0.247
46 | AHCYL1_O43865_395_NSCIVCNMGHSNTEIDVTSLR (UniProt O43865) | 0.199 | -0.158
47 | AKAP9_Q99996_2877_AVIQCLR (UniProt Q99996) | -0.293 | -0.497
48 | ANAPC11_Q9NYG5_73+76_WLHAQQVQQHCPMCR (UniProt Q9NYG5) | -0.342 | 0.706
49 | AIP_O00170_78_FKLPVWETIVCTMR (UniProt O00170) | -0.305 | -0.108
50 | ALDH16A1_Q8IZ83_350_GAAACDLVQR (UniProt Q8IZ83) | 0.0125 | -0.0468
51 | AGPS_O00116_247_YNLCIIPIGGGTSVSYGLMCPADETR (UniProt O00116) | -0.128 | -1.53e-05
52 | AHNAK_Q09666_2162_LEGDLTGPSVDVEVPDVELECPDAK (UniProt Q09666) | 0.108 | -0.124
53 | ALG2_Q9H553_137_ILFYCHFPDLLLTK (UniProt Q9H553) | 0.19 | 0.403
54 | ALDH3A2_P51648_50_DILTAIAADLCK (UniProt P51648) | -0.0608 | 0.0936
55 | AK2_P54819_40+42_LAENFCVCHLATGDMLR (UniProt P54819) | 0.0321 | -0.437
56 | AGPAT1_Q99943_229_RFTSGQCQVR (UniProt Q99943) | 0.486 | 0.499
57 | AHCYL2_Q96HN2_454_QVDIVITCTGNK (UniProt Q96HN2) | 0.0592 | 0.000534
58 | AHNAK_Q09666_5502_SSGCDVNLPGVNVK (UniProt Q09666) | -0.0741 | -0.284
59 | AMBRA1_Q9C0C7_1036_GDLVICRPEALNSGVEYYWDQLNETVFTVHSNSR (UniProt Q9C0C7) | -0.016 | 0.16
60 | ALDH1L1_O75891_537_YFAGWCDK (UniProt O75891) | -0.0268 | -0.223
61 | AKR1B1_P15121_81_LWCTYHEK (UniProt P15121) | -0.0369 | -0.0183
62 | AKAP9_Q99996_3508_LIEMNGGGTGCNHELEMIR (UniProt Q99996) | -0.0253 | -0.114
63 | AGPS_O00116_190_AHGHCLHEIFLLR (UniProt O00116) | 0.0702 | -0.206

Row | Target | probe-labelled cysteine peptide fold change (10 µM) | probe-labelled cysteine peptide fold change (50 µM)
64 | AHCYL1_O43865_172_IVGCTHITAQTAVLIETLCALGAQCR (UniProt O43865) | -0.284 | 0.552
65 | AKAP8_O43823_395_IQFACSVCK (UniProt O43823) | 0.0747 | -0.348
66 | AHCYL2_Q96HN2_232_IVGCTHITAQTAVLMETLGALGAQCR (UniProt Q96HN2) | 0.123 | 0.0597
67 | ALDOA_P04075_178_YASICQQNGIVPIVEPEILPDGDHDLK (UniProt P04075) | 0.181 | 0.407
68 | AKAP8_O43823_173_NGSFGGQYSECR (UniProt O43823) | -0.0927 | 0.0282
69 | AIMP1_Q12904_211_MVILLCNLK (UniProt Q12904) | 0.0571 | 0.381
70 | AKR7A2_O43488_132+156_RLQCPQVDLFYLHAPDHGTPVEETLHACQR (UniProt O43488) | -0.245 | -0.374
71 | AKAP9_Q99996_2868_EECGTLK (UniProt Q99996) | -0.0389 | 0.0822
72 | ANAPC7_Q9UJX3_329_EGRLEDVENLGCR (UniProt Q9UJX3) | -0.0392 | -0.302
73 | ALDOA_P04075_240_PNMVTPGHACTQK (UniProt P04075) | -0.0357 | 0.19
74 | AKR7A2_O43488_132_RLQCPQVDLFYLHAPDHGTPVEETLHACQR (UniProt O43488) | -0.0268 | -0.23
75 | AMFR_Q9UKV5_356+364_KLPCGHLFHNSCLR (UniProt Q9UKV5) | 0.0916 | -0.0158
76 | AKR1A1_P14550_187+200_QIDDILSVASVRPAVLQVECHPYLAQNELIAHCQAR (UniProt P14550) | -0.0187 | -0.0103
77 | AHRR_A9YTQ3_485_DVGEDQVHPPLCHFPQR (UniProt A9YTQ3) | 0.526 | 0.383
78 | AKR1C3_P42330_242_WVDPNSPVLLEDPVLCALAK (UniProt P42330) | 0.288 | 0.69
79 | AGPS_O00116_565_GVQFAPFSTCR (UniProt O00116) | -0.0112 | 0.125
80 | ALAD_P13716_132_TFPNLLVACDVCLCPYTSHGHCGLLSENGAFR (UniProt P13716) | 0.0644 | -0.235
81 | ALDOC_P09972_73_KCIGGVIFFHETLYQK (UniProt P09972) | 0.224 | -0.0656
82 | ALDH4A1_P30038_315_LAGECGGK (UniProt P30038) | -0.0573 | 0.0215
83 | AHCYL1_O43865_392_NSCIVCNMGHSNTEIDVTSLR (UniProt O43865) | 0.17 | 0.08
